Experimental data: paper PMC6706699 (Developmental Cell, 2019)

Sequences of proteins named here, by UniProt entry; tags and fusion partners are left off.
UniProt O08539: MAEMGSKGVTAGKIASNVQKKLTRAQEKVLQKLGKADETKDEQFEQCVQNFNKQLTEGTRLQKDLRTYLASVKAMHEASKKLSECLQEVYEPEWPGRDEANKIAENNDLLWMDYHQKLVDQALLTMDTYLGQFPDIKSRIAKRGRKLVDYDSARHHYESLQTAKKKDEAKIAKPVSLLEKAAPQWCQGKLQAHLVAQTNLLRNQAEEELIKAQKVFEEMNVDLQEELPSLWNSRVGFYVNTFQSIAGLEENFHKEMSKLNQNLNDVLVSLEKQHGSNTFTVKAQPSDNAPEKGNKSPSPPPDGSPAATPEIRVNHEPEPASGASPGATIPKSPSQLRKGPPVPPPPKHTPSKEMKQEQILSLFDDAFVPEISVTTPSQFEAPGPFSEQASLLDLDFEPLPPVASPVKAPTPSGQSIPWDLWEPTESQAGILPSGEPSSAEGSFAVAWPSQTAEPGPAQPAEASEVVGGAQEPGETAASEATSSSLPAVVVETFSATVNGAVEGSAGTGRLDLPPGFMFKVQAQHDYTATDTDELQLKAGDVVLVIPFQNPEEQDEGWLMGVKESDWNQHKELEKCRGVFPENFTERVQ
UniProt Q9Y5X1: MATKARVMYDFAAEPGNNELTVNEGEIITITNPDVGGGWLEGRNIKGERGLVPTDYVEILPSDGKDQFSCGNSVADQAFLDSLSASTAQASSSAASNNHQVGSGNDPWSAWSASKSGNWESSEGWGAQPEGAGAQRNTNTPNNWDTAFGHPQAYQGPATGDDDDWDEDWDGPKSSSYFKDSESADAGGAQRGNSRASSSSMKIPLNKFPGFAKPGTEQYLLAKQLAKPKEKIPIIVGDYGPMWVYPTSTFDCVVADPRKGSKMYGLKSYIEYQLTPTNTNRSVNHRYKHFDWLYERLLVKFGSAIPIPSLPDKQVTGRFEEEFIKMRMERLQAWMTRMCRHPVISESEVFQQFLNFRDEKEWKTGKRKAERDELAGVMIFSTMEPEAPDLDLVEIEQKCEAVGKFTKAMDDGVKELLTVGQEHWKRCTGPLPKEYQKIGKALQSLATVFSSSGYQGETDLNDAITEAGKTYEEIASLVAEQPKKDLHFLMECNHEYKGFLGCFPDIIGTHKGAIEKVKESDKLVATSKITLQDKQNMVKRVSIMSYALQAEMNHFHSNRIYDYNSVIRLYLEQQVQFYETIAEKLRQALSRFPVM

What was measured:
[1] = biological target: T1, GST-NECAP1 PHear (1-133) R90A (UniProt Q8NC96); test: affinity purification with mass spectrometry; GST-NECAP1 PHear (1-133) WT, R90A, R102A or R90A/R102A on GSH beads, mouse brain lysate, 1 h at 4°C in buffer T; only the target purified
T1 sequence: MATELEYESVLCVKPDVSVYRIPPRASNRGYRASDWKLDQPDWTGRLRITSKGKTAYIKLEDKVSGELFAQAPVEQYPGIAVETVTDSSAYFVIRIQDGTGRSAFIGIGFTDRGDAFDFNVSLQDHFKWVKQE

[2] = biological target: T2, GST-NECAP1 PHear (residues 1-133) (UniProt Q8NC96); test: as above
T2 sequence: T1 sequence with A90R

[3] = biological target: T2, GST-NECAP1 PHear (residues 1-133); test: affinity purification with mass spectrometry; GST-NECAP1 1–133 on GSH beads, cytosolic extracts of HeLa, RPE and HepG2 cells, buffer T; only the target purified

Q: How did the binding [1] turn out when “Amphiphysin2 / Bin1, endogenous in mouse brain lysate (from UniProt O08539 1-588)” was run?
A: binds

Q: What about the binding [2] of the same molecule?
A: binds

Q: Which binding [3] does the source give for “SNX9, endogenous in human non-neuronal cells (from UniProt Q9Y5X1 1-595)” here?
A: binds

B1: Amphiphysin1, endogenous in mouse brain lysate (protein, UniProt Q7TQF7 1-686)
chain: MADIKTGIFAKNVQKRLNRAQEKVLQKLGKADETKDEQFEEYVQNFKRQEAEGTRLQRELRGYLAAIKGMQEASMKLTESLHEVYEPDWYGREDVKMVGEKCDVLWEDFHQKLVDGSLLTLDTYLGQFPDIKNRIAKRSRKLVDYDSARHHLEALQSSKRKDESRISKAEEEFQKAQKVFEEFNVDLQEELPSLWSSRVGFYVNTFKNVSSLEAKFHKEIAVLCHKLYEVMTKLGDQHADKAFSIQGAPSDSGPLRIAKTPSPPEEPSPLPSPTASPNHTLAPASPAPVRPRSPSQTRKGPPVPPLPKVTPTKELKQENIINFFEDNFVPEINVTTPSQNEVLEVKKEETLLDLDFDPFKPDVAPAGSAAATHSPMSQTLPWDLWTTSTDLVQPASGGSFNDFTQAQDTSLFTMQTDQNMAETEQALPTEPQAEEPPATAAAPTAGLDLGLEMEEPKEEAVIPPATDTGETVETAVPTEGAPVEEAEAEKAALPAGEGGSPEGAKIDGESTELAISESPQPVEPEAGAPQVIPSVVIEPASNHEGEGEHQETATGTEPREAAEDVAAQGSAGEKQEVATEPTPLDSQATLPASAGAVDASLSAGDATQELPPGFLYKVETLHDFEAANSDELNLQRGDVVLVVPSDSEADQDAGWLVGVKESDWLQYRDLATYKGLFPENFTRRLE
Q: For B1, which binding [1] is on record?
A: binds

Q: What about the binding [2] of the same molecule?
A: binds

B2: Bin2, endogenous in mouse brain lysate (protein, UniProt D3Z6Q9 1-489)
chain: MAEGKAGGAAGLFAKQMQKKFSRAQEKVLQKLGKTVETKDERFEQSASNFYQQQAEGHKLYKDLKNFLSAVKVMHESSKRVSETLQEVYSSDWDGHEDLKAIVGNNDLLWEDYEEKLADQALRTMENYVSQFSEIKERIAKRGRKLVDYDSARHHLEAVQNAKKKDDAKMAKAEEDFSKAQIVFEDLNQELLEELPILYNSRIGCYVTVFQNISNLRDVFYREMSKLNHNLYEVMSKLEKQHSNKVFVVKGLSSSSRRSLVISPPVQSCAASSPVSPVSPVSPVTSPTSPSATSEPESVSATGEELTSEAGGEDSCESQESLKDEEADEAQSETSSSLPACNGPTPAPASPAAEVGSQEEALSSSAQSPGRGQTGKDTPSPGDVVLRARASSEGAEQSKRAASIQRTSAPPSRPPPPRASGSGSCNAPGSPEGSSQLCSPRASPDASSNPEPAETREKEGAGSSGPEEPRAVSTKSATQASGGLVGLFL
Q: For B2, which binding [1] is on record?
A: binds

Q: And the binding [2]?
A: binds

B3: CALM, endogenous in human non-neuronal cells (protein, UniProt Q13492 1-652)
chain: MSGQSLTDRITAAQHSVTGSAVSKTVCKATTHEIMGPKKKHLDYLIQCTNEMNVNIPQLADSLFERTTNSSWVVVFKSLITTHHLMVYGNERFIQYLASRNTLFNLSNFLDKSGLQGYDMSTFIRRYSRYLNEKAVSYRQVAFDFTKVKRGADGVMRTMNTEKLLKTVPIIQNQMDALLDFNVNSNELTNGVINAAFMLLFKDAIRLFAAYNEGIINLLEKYFDMKKNQCKEGLDIYKKFLTRMTRISEFLKVAEQVGIDRGDIPDLSQAPSSLLDALEQHLASLEGKKIKDSTAASRATTLSNAVSSLASTGLSLTKVDEREKQAALEEEQARLKALKEQRLKELAKKPHTSLTTAASPVSTSAGGIMTAPAIDIFSTPSSSNSTSKLPNDLLDLQQPTFHPSVHPMSTASQVASTWGDPFSATVDAVDDAIPSLNPFLTKSSGDVHLSISSDVSTFTTRTPTHEMFVGFTPSPVAQPHPSAGLNVDFESVFGNKSTNVIVDSGGFDELGGLLKPTVASQNQNLPVAKLPPSKLVSDDLDSSLANLVGNLGIGNGTTKNDVNWSQPGEKKLTGGSNWQPKVAPTTAWNAATMAPPVMAYPATTPTGMIGYGIPPQMGSVPVMTQPTLIYSQPVMRPPNPFGPVSGAQIQFM
Q: Which binding [3] does the source give for B3 here?
A: binds

Residue numbers refer to the chain shown, from its start. Results are given in words; binding and its absence hold for the method and conditions named. In cells and extracts the contact can be indirect. A yes stands for co-enrichment or nearness to the bait. Other partners may have been found. Tags and fused reporters may be left off the sequences shown.
